Reference: patent publication US7304050B2, “Antibacterial agents” (Pfizer Inc., priority 2003, dated 2007)
At least one compound was matched to its structure with a doubt left.

System: E. coli transcription and translation (TnT)
Type: biochemical

SMILES: CC(=O)NC[C@H]1CN(c2ccc3c(c2)CCCN(c2nc4c(cc2F)c(=O)c(C(=O)O)cn4C2CC2)C3)C(=O)O1 (stereo in doubt) [Example 15, 7-{7-[5-(Acetylamino-methyl)-2-oxo-oxazolidin-3-yl]-1,3,4,5-tetrahydro-benzo[c]azepin-2-yl}-1-cyclopropyl-6-fluoro-4-oxo-1,4-dihydro-[1,8]naphthyridine-3-carboxylic Acid]
- Inhibitory concentration in E. coli cell-free transcription/translation (TnT) assay: 15 µg/mL
